# “And” between values parts separate entries of the source, which are not always exact repeats. Equal values may be shown once.
# Chains of the proteins cited; added tags and fusions are not shown.
# UniProt Q8NHX9, whole entry L11A/L12A: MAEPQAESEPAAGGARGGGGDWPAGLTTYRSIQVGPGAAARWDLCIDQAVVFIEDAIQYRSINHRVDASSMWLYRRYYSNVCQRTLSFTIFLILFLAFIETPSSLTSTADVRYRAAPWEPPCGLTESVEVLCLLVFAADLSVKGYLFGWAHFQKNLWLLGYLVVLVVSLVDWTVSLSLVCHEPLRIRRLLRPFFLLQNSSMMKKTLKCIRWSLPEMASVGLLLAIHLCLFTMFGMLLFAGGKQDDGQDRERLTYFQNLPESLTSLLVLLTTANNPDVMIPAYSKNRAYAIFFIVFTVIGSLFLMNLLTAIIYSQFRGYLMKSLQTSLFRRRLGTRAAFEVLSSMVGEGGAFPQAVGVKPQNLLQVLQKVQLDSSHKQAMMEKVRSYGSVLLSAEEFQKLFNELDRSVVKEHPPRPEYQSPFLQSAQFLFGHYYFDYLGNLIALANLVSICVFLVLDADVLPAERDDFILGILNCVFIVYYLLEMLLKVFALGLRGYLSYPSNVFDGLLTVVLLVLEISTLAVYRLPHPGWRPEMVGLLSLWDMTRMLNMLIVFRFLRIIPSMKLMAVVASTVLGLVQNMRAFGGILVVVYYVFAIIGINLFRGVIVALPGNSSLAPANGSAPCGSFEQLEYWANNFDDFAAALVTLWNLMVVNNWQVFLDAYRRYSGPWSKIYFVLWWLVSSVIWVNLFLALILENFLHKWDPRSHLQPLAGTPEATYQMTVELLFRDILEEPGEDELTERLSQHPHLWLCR
# Target: T1, human TPC2 L11A/L12A (TPC2^PM) (Homo sapiens, UniProt Q8NHX9, L11A/L12A)
# T1 construct: FLAG (C); V5 (C); expressed in transfected cells; host or cells: HEK293
# Test: Whole cell patch-clamp of NAADP (microinjection)-induced TPC2^PM currents in HEK293 cells
# Format: cell-based
# Description: Whole cell patch-clamp recording of the NAADP (microinjection)-induced TPC2^PM currents was performed as we reported. […] The cells were visualized under an infrared differential interference contrast optics microscope (Zeiss). Currents were recorded by voltage ramps from −120 to +120 mV over 400 ms for every 2 s with a holding potential of 0 mV. After a whole cell recording configuration was achieved, an injection pipette was inserted into the cell and the baseline of the whole cell current was recorded. Microinjection of NAADP was performed as above in imaging analysis of NAADP-evoked Ca^2+ release. The NAADP-induced currents were obtained by subtraction of the baseline from NAADP injection-induced currents.
smiles,measurement,value
Nc1ccc(C(=O)Nc2cccc(-c3nc(N4CCOCC4)c4oc5ncccc5c4n3)c2)cn1 [YM201636],"I, current density of NAADP-induced whole cell TPC2^PM currents, individual cells",12.3231 pA/pF and 7.512 pA/pF and 11.1767 pA/pF and 10.1987 pA/pF and 6.932 pA/pF and 10.539 pA/pF

# Source: article PMC9308409 (Communications Biology, 2022)
